# PubChem BioAssay AID1508588, Peter MacCallum Cancer Centre | 2020
# Assay: 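Which gene losses make BRAF-mutant melanoma cells more responsive to vemurafenib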 (primary screen)
# Cell system: human WM266.4 melanoma cells (BRAF V600 mutant)
# Knock-down reagent: siRNA pool against human genes, 40 nM
# Time to read-out: 96 h from transfection to read-out
# Treatment: vemurafenib 300 nM (about IC25), added 48 h after transfection, for 48 h; comparison arm got DMSO vehicle only
# Detection: 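Cell gain (DAPI nuclei at end minus before drug, mean of two replicates) and medium lactate by absorbance per cell, both as ratio to non-targeting siRNA, also grouped into fold-change classes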
# Direction: cell gain with vemurafenib: higher = more cell gain than with non-targeting siRNA; lactate per cell with vemurafenib: higher = more lactate made per cell
# Active means: 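Enhancement is called by pairing each knock-down's vehicle-arm and drug-arm fold-change classes for viability or glycolysis; which class combinations qualify is not given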
# Meaning of the calls: active = enhances vemurafenib effect; inactive = no enhancement seen
# In all, the deposit lists about 18,000 reagents; this is a part drawn at random. 790 of all reagents (4.4%) count as active. 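Calls rest on a combination of fold-change classes in drug and vehicle arms, not all shown here.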 Entries without a mark were called inactive.
cell gain with vemurafenib,lactate per cell with vemurafenib,Gene
0.27,0.86,BTAF1
0.07,1.43,COL1A2
1.27,0.55,TPT1
0.57,1.43,FANCD2
0.85,0.88,TSPYL4
0.67,0.74,LRRC41
0.64,1.04,CAPN3
0.47 (active),0.6,CFHR1
0.95,0.83,CASR
0.99,1.32,MCCD1
0.42,1,SLA2
0.74,0.73,LYPLA1
0.44,1.48,FGF20
0.28 (active),0.42,CCDC159
1.11,0.63,ASL
1.11,0.68,ITGA9
0.32,0.56,TSPAN32
0.42,1.77,CHRNA10
0.56,1.06,NFKBID
0.37,0.99,ACTL7B
0.54,0.45,SND1-IT1
0.28,2.2,CAV2
0.41,1.22,REEP5
0.42,1.49,FAM110D
0.79,1.3,CTBP2
1.02,1.13,STARD10
0.21,1.29,MTUS1
0.28,1.19,GPR50
0.44,1.03,SAP30L
0.52,0.6,DMAP1
0.83,1.4,MMP23B
0.79,0.98,ADGRG2
0.48,1.71,CCDC126
0.67,0.79,XRCC3
0.95 (active),0.17,SLAMF8
0.32,1.71,ANKAR
0.44,0.79,TST
0.25,0.93,GTPBP8
0.66,1.31,CHD7
0.92 (active),0.41,CT47A2
0,2.21,SNRPE
0.87,0.77,LIAS
0.28,0.55,CD200
0.27,2.09,F8A3
0.69,0.92,FEM1C
0.69,0.97,FBXL13
0.33,1.74,CALN1
0.96,1.06,GCM1
0.23,1.81,LMX1B
0.46,1.12,TKTL2
0.78,1.21,SLAIN1
0.69,0.76,GALP
0.26,1.17,HS3ST4
-0.33,1.57,RBM8A
0.76,0.98,ZNF813
0.38,1.12,S1PR2
0.47,1.64,RTL8B
0.68,0.48,PPM1E
0.83,0.6,ECM2
0.7,0.88,C3orf36
0.86,0.66,PYROXD1
0.55,0.52,ATP2A1

Continued; the last 13 above are carried over.
cell gain with vemurafenib,lactate per cell with vemurafenib,Gene
0.46,1.12,TKTL2
0.78,1.21,SLAIN1
0.69,0.76,GALP
0.26,1.17,HS3ST4
-0.33,1.57,RBM8A
0.76,0.98,ZNF813
0.38,1.12,S1PR2
0.47,1.64,RTL8B
0.68,0.48,PPM1E
0.83,0.6,ECM2
0.7,0.88,C3orf36
0.86,0.66,PYROXD1
0.55,0.52,ATP2A1
0.85,0.62,GLB1L
0.73,0.77,RIF1
0.85,1.04,SMUG1
0.5,0.8,HSD3B7
0.27,1.3,ALDH1B1
0.57,0.68,GPR108
0.06,0.6,CHAF1A
0.64,1.38,SPINK7
0.5,0.84,RAB40B
1.03,0.49,TAS2R4
0.97,1.23,NKAIN1
0.42,1.38,ZPBP
0.62,0.99,SLC6A11
0.77,1.12,LYRM1
0.88,0.63,TBXT
0.8,0.34,FAM153A
0.57,1.38,FRG2
0.37,0.82,NEFH
0.84,1.11,KDM6A
0.47,1.25,CEP55
0.12,3.39,SCAF1
0.61,0.52,PIAS4
0.73,1.01,THUMPD1
0.4,0.66,TEX56P
0.1 (active),0.04,ABHD15
0.47,1.07,PAXX
0.77,0.57,CCN3
0.55,0.82,BRCC3
0.16,1.25,GEMIN4
0.84,0.99,UNC50
0.79,1.48,HID1
1.07,0.38,AJUBA
0.27,1.02,CCDC17
0.39,1.23,GLA
0.39,0.85,PA2G4
0.65,0.82,GINS3
0.94,0.98,MRM3
0.83,1.1,SMO
0.07 (active),0.51,PFDN6
0.51,1.09,TAF6
0.48,1.44,PPP4R2
1.17,1.18,WNT16
0.98,0.8,DYNC1LI2
0.64,0.76,VAPB
0.57,1.26,MASP1
